# Measurements taken from PubChem BioAssay AID504467 (National Center for Advancing Translational Sciences (NCATS), 2011).
# Among all 330,000 compounds or so, about 7,700 (2.3%) were called active. The shares of active, inactive and inconclusive entries below differ from those in the screen. Calls come from the whole dose curve; as a rule, active = well fitted inhibition curve with a large enough effect; inconclusive = small, poorly fitted or top-dose-only effect, or effect the other way; inactive = flat fitted curve, though single readings scatter. Potencies beside an inconclusive call are fits to weak or partial responses and may not hold up.
# Test: qHTS screen for small molecules that inhibit ELG1-dependent DNA repair in human embryonic kidney (HEK293T) cells expressing luciferase-tagged ELG1; note: nearly all actives have a fitted effect of over 55% in size
# Conditions: HEK293T ELG1-luciferase reporter, luminescence, 16 h, DNA damage induced by 5-fluorouridine; series mostly up to 46.1 µM
# Summary of the method: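 Overnight (16 hr) co-exposure of 2,000 cells/well to 5-fluorouridine and compound at 37 °C preceded detection. Luciferase was quantified via ONE-Glo luminescence; loss of signal denotes inhibition.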
# Potency is the fitted concentration of half-maximal effect.
row,SMILES,Potency
1,Cn1c2ccccc2c2c(C(=O)N3CCC4(CC3)OCCO4)cn(C3CCCCC3)c(=O)c21,"inconclusive: 23.1 µM [inhibitor, partial curve]"
2,Cc1ccc(C(=O)n2c(N)nc3ccccc32)cc1,"inconclusive: 0.146 µM [activator, full curve]"
3,CN(C)C(Cc1ccc(Cl)cc1)C(=O)c1ccccc1 (stereo not given),"inconclusive: 23.1 µM [activator, partial curve]"
4,CCCCn1c(=O)c(C(=O)Nc2ccccc2)c(O)c2ccccc21,inactive
5,S=C(Nc1ccc(Br)cc1Cl)N1CCC2(CC1)OCCO2,"inconclusive: 16.4 µM [activator, single point]"
6,COC(=O)C1=C(c2ccc(Cl)c(C(F)(F)F)c2)C[C@@H]2CC[C@H]1N2C(=O)NC1CC1,inactive
7,COP(=O)(OC)C(NS(=O)(=O)c1ccccc1)C(Cl)(Cl)Cl (stereo not given),inactive
8,CCCNS(=O)(=O)c1ccc(OCC(=O)N2CCN(Cc3ccccc3)CC2)cc1,"inconclusive: 7.31 µM [inhibitor, single point]"
9,N#CCSc1nnc(-c2ccc3c(c2)OCO3)o1,"inconclusive: 13 µM [activator, partial curve]"
10,CC(C)c1ccc(N(C(=O)c2csnn2)C(C(=O)NC2CCCC2)c2ccncc2)cc1 (stereo not given),"inconclusive: 20.6 µM [activator, partial curve, poor fit]"
11,N#Cc1c(/N=C/c2ccc(O)cc2O)sc2c1C1CCN2CC1,"inconclusive: 20.6 µM [activator, partial curve]"
12,Cn1c(NN=O)nc2ccccc21,"inconclusive: 29.1 µM [activator, single point]"
13,O=C(NC1CC1)c1cn(Cc2ccccc2)nc1-c1ccccc1,inactive
14,COC(=O)C1=C(c2ccccc2OCc2ccccc2)C[C@@H]2CC[C@H]1N2C(=O)NCCN1CCOCC1,inactive
15,Cc1ccc(NC(=O)c2cc(-c3ccccc3)n(CCCN3CCOCC3)c2C)cc1,"inconclusive: 18.3 µM [inhibitor, partial curve, poor fit]"
16,CCCCn1c(NC(=O)c2ccc(Br)o2)c(C(=O)OCC)c2nc3ccccc3nc21,"inconclusive: 29.1 µM [inhibitor, single point]"
17,CC(C)(C)c1nc(NCc2ccc3c(c2)OCO3)c2nnn(Cc3ccccc3Cl)c2n1,inactive
18,CN(C)C(=O)Oc1ccc(-c2nnco2)cc1,inactive
19,ClCCOCOCCCl,inactive
20,O=C1C2CCN(CC2)C1Cc1ccccc1O (stereo not given),inactive
21,CC[C@H]1CN2CCc3cc(OC)c(OC)cc3[C@@H]2C[C@@H]1C[C@H]1NCCc2cc(OC)c(OC)cc21,active: 0.259 µM
22,COc1ccc(C(=O)Nc2cccc(S(=O)(=O)NCc3ccco3)c2)cc1,"inconclusive: 25.9 µM [inhibitor, single point]"
23,O=C(C1CC(=O)N(C2CCCCC2)C1)N1CCC2(CC1)OCCO2 (stereo not given),"inconclusive: 14.6 µM [activator, partial curve, poor fit]"

# In the list so far, these have bromine.
row,SMILES,Potency
5,S=C(Nc1ccc(Br)cc1Cl)N1CCC2(CC1)OCCO2,"inconclusive: 16.4 µM [activator, single point]"
16,CCCCn1c(NC(=O)c2ccc(Br)o2)c(C(=O)OCC)c2nc3ccccc3nc21,"inconclusive: 29.1 µM [inhibitor, single point]"

# The list goes on:

row,SMILES,Potency
1,CCN1C(=O)NC(=O)/C(=C\c2cn(CC(=O)O)c3ccccc23)C1=O,inactive
2,C=CCn1c(O)c(C=Nc2ccc(OC)cc2C)c(=O)[nH]c1=O,inactive
3,O=[N+]([O-])c1cc(F)c(N2CCCC2)cc1N1CCNCC1,inactive
4,Cc1nc2ccccc2c(=O)n1-c1ccccc1[N+](=O)[O-],inactive
5,COC(=O)C1=C(c2ccc(F)cc2OCc2ccccc2)C[C@@H]2CC[C@H]1N2C(=O)NCc1ccc(F)cc1,"inconclusive: 29.1 µM [inhibitor, single point]"
6,COC(=O)C(Cc1ccc(N(CCCl)CCCl)cc1)N=Cc1ccccc1O (stereo not given),active: 18.3 µM
7,Cn1nc(-c2ccc(OCC(=O)N3CCN(Cc4ccccc4)CC3)cc2)c2ccccc2c1=O,"inconclusive: 7.31 µM [inhibitor, partial curve]"
8,CCCCCCn1c(=O)c(C(=O)Nc2cnccn2)c(O)c2ccccc21,"inconclusive: 3.26 µM [inhibitor, partial curve, poor fit]"
9,Cc1ccnc(-n2c(C)nc3ccccc3c2=O)c1,"inconclusive: 18.4 µM [activator, single point]"
10,O=C(O)COc1ccc(/C=C2/SC(=S)N(Cc3ccccc3)C2=O)cc1,"inconclusive: 11.6 µM [activator, partial curve, poor fit]"
11,CCCCCC[N+](=O)[O-],inactive
12,COC(=O)C1=C(c2cccc(OCc3ccccc3)c2)C[C@@H]2CC[C@H]1N2C(=O)NCCc1ccc(F)cc1,"inconclusive: 29.1 µM [inhibitor, single point]"
13,C=CCN1C(=O)NC(=O)/C(=C\c2ccc(-c3ccccc3[N+](=O)[O-])o2)C1=O,"inconclusive: 29.1 µM [activator, single point]"
14,O=c1c2ccccc2nc(CSc2ncnc3nc[nH]c23)n1-c1ccc(Cl)c(Cl)c1,"inconclusive: 2.91 µM [inhibitor, partial curve]"
15,O=C(Nc1ccc(Cl)c(Cl)c1)c1ccco1,"inconclusive: 18.3 µM [activator, partial curve]"
16,Cc1ccc(-c2noc(=O)n2CC(=O)Nc2ccc(S(=O)(=O)NC3CC3)cc2)cc1,"inconclusive: 2.91 µM [inhibitor, partial curve, poor fit]"
17,O=c1[nH]c(=S)[nH]c(O)c1N=Nc1ccc(SC(F)F)cc1,"inconclusive: 13 µM [activator, partial curve]"
18,CN1C(=O)N(C)C(=O)C2(Cc3cc(NC(=O)c4ccc(F)cc4)ccc3N3CCCC32)C1=O (stereo not given),inactive
19,CCOC(=O)c1c(N)n(CCN2CCOCC2)c2nc3ccccc3nc12,"inconclusive: 16.4 µM [inhibitor, partial curve, poor fit]"
20,C[C@@]1(CO)[C@H](O)CC[C@@]2(C)[C@H]1CC[C@H]1C[C@@H]3C[C@@]12CC[C@]3(O)CO,inactive
21,O=C(NCC(c1cccnc1)N1CCOCC1)Oc1ccccc1 (stereo not given),"inconclusive: 20.6 µM [activator, partial curve]"
22,CCC(C)n1c(O)c(C=NCc2cccnc2)c(=O)[nH]c1=S (stereo not given),"inconclusive: 29.1 µM [inhibitor, partial curve, poor fit]"
